Experimental data: patent publication US20120045395

The chains behind the UniProt entries cited, without tags or fusion partners. Residues count along the entry.
UniProt P84022, 2-425: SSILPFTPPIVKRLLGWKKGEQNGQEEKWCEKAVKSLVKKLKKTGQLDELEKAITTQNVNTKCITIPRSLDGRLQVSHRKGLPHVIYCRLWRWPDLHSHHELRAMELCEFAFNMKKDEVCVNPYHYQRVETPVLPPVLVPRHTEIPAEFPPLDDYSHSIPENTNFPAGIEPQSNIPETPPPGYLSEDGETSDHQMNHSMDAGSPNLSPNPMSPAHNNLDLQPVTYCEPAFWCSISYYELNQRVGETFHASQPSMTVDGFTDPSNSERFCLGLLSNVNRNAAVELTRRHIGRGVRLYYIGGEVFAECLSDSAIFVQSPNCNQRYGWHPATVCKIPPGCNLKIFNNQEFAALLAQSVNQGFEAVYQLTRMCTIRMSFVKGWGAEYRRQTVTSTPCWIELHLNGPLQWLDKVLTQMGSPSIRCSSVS

Target: SMAD3 (A549 nuclear extract, TGF-beta treated) (Homo sapiens) (UniProt P84022)
Assay: EMSA
Conditions: supershift with SMAD3 antibody, not with peroxiredoxin 6 antibody; competed by unlabeled DNA; protein in an extract; label: 5'-Cy5

GATAATTAAATGTTAAAAGTCAGC (double strand) [let-7d promoter EMSA probe]
binding result: binds

Where cells or extracts were used, other partners may take part.
